Results reported in PubChem BioAssay AID1445 (SRMLSC, 2008).
The campaign covered roughly 220,000 compounds. About 910 (0.41%) were called active. The inconclusive results got no clear call from the source; some entries with a clear call stand among them for comparison.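 The calls were made as follows: active = primary inhibition above the hit cutoff, then over 50% inhibition at one or more dose response concentrations (cut at about 23% in these data, passing the limit was not always enough); inconclusive = conflicting primary data, or primary hits not chosen for dose response; inactive = low primary inhibition, or under 50% at every dose.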

Chains of the proteins cited; added tags and fusions are not shown. Lines headed by an entry give the natural chain unless they say otherwise; changes in a name come on top.
UniProt O96935: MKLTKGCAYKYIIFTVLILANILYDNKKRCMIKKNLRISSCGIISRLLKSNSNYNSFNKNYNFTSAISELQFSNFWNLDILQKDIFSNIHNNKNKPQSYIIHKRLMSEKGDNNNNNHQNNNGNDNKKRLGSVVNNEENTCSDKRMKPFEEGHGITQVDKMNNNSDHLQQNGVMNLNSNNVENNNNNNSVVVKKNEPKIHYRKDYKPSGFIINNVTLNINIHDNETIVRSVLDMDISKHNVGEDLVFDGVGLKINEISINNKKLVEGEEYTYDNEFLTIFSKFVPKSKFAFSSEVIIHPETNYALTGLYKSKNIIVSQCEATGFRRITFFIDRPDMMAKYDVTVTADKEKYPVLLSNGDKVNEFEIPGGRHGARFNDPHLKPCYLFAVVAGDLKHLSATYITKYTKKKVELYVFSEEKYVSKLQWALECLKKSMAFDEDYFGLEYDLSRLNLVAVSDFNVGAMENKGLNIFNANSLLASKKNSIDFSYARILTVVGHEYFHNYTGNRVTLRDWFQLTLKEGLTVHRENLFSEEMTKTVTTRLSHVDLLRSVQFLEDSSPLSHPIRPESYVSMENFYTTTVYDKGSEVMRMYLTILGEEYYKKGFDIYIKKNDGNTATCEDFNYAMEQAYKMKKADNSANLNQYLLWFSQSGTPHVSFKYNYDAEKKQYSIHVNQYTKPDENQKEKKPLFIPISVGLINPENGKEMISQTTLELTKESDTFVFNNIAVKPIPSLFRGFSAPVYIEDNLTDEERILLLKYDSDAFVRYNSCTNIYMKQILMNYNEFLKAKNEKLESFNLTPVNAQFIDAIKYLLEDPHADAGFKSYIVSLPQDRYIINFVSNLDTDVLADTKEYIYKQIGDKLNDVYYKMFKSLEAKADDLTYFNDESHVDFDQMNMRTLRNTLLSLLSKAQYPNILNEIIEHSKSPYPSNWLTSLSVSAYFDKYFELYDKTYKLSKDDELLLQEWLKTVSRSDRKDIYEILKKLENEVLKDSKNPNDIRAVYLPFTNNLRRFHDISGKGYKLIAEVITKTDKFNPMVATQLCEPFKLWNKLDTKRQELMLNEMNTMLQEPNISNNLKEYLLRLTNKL

molecular target: Aminopeptidase N (Plasmodium falciparum (isolate 3D7)) (UniProt O96935); assay: P. falciparum M1AAP inhibitors, biochemical, fluorogenic H-Leu-NHMec substrate, 1536-well (AID 1445); details: recombinant M1AAP, H-Leu-NHMec fluorogenic kinetic assay; at 30 µM, stronger effect = higher value unless noted;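 also: plate controls were DMSO full reaction for no effect and no enzyme background for full effect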

Compound	inhibition
O=C(NNC(=S)NC(=O)c1cccnc1)c1ccc(Cl)cc1	inconclusive: 39.2%
O=C(CCN1CCN(c2ccccc2)CC1)N/N=C/c1ccc(O)c(O)c1O	inconclusive: 28%
CC(C(=O)Nc1ccc(S(=O)(=O)N2CCCC2)cc1)N1CCN(C(=O)c2ccco2)CC1 (stereo unspecified)	active: 35.6%
Cc1ccc(-c2c3c(=O)n(C)c(=O)n(C)c3cn2-c2ccccc2O)cc1	inconclusive: 22.8%
CCc1nnc(NC(=O)c2cc(S(=O)(=O)N3CCN(c4ccccc4)CC3)ccc2Cl)s1	inconclusive: 23.5%
c1cncc(Cc2cc3ccccc3[nH]2)c1	inactive: 4.4%
CCSc1nc(-c2ccccc2)c(C#N)c(=O)[nH]1	inactive: -8.26%
Cc1cccc(C)c1NC1=NC(=S)N(c2ccc(C(=O)O)cc2)C12CCCCC2	inconclusive: 24.2%
CSc1ncc(Cl)c(C(=O)Nc2ccc(NC(C)=O)cc2)n1	inactive: 1.65%
COC(=O)Cc1c(C)c2cc(Cl)c(OC(=O)c3ccco3)cc2oc1=O	inconclusive: 26.6%
CCN(CCC#N)c1ccc(/C=N/Nc2nc(C)cc(=O)[nH]2)c(C)c1	inconclusive: 25.6%
CCOC(=O)c1c(-c2ccc(F)cc2)csc1NC(=O)c1c(-c2ccccc2)noc1C	inactive: 0.4%
O=S(=O)(/N=C(/NNS(=O)(=O)c1ccccc1)c1ccccc1)c1ccccc1	inconclusive: 23.7%
O=C(N/N=C\c1ccc([N+](=O)[O-])o1)C1COc2ccccc2O1 (stereo unspecified)	inactive: 15.2%
COc1cc(/C=C2/C(=O)NN(c3cccc(C)c3)C2=O)cc([N+](=O)[O-])c1O	inconclusive: 25.9%
N#Cc1c(NC(=O)CN2CCOCC2)oc(-c2ccccc2)c1-c1ccccc1	active: 23.5%
Cc1cccc2cc(CN(Cc3cccs3)S(=O)(=O)c3ccc4c(c3)OCCO4)c(=O)[nH]c12	inactive: 4.88%
COc1ccc(NC(=O)C2CCCN2C(=O)NCc2ccccc2)cc1 (stereo unspecified)	inconclusive: 26.6%
CCc1c(C(=O)NC2CCCC2)csc1C	inconclusive: 25.8%

Molecules above that have a nitro group on carbon, in the order listed:
Compound	inhibition
O=C(N/N=C\c1ccc([N+](=O)[O-])o1)C1COc2ccccc2O1 (stereo unspecified)	inactive: 15.2%
COc1cc(/C=C2/C(=O)NN(c3cccc(C)c3)C2=O)cc([N+](=O)[O-])c1O	inconclusive: 25.9%

Continued.

Compound	inhibition
CCOC(=O)CC(=O)CSc1nc2c(c(-c3cccs3)c1C#N)CCC2	inconclusive: 27.2%
O=C(O)c1cccc(N2C(=O)c3cccc(Oc4ccc(Cl)cc4)c3C2=O)c1	inconclusive: 23.8%
O=C(N/N=C/c1cc(Br)ccc1O)C(=O)Nc1ccccc1OC(F)(F)C(F)F	inconclusive: 26.4%
CCc1c(C)[nH]n(-c2nc(-c3ccccc3)cs2)c1=O	inactive: -3.51%
CN1CCc2c(sc(NC(=O)c3ccc(S(=O)(=O)N4CCOCC4)cc3)c2C(N)=O)C1	inconclusive: 23.7%
CCOC(=O)c1cc2c(=O)n3ccccc3nc2n(CCOC)c1=NC(=O)c1ccncc1	active: 45.3%
COc1cc2c(cc1OC)-c1cc(Nc3ccc(N(C)C)cc3)nc(=O)n1CC2	inconclusive: 23.4%
CCOc1ccccc1Nc1nnc(SCC(=O)Nc2ccc3[nH]c(=O)[nH]c3c2)s1	inactive: 1.06%
Cc1cnc(C(=O)Nc2cccc3cccnc23)cn1	active: 24.3%
O=C1CC(NNc2ccccc2)C(=O)N1c1cccc(Cl)c1 (stereo unspecified)	inconclusive: 27%
O=C(Cc1csc(NC(=O)c2ccccc2)n1)NO	inconclusive: 26.9%
Cc1ccc2[nH]c(=O)c(-c3nc4c(C)cccn4c3NCc3ccco3)cc2c1	inconclusive: 25.1%
O=S(=O)(Nc1nccs1)c1cc(Cl)ccc1Cl	active: 25.8%
Cc1ccc(CN2CCN(C(=O)C3CCC3)CC2)cc1	active: 27.7%
O=S(=O)(Nc1nc2ccccc2nc1Cl)c1ccc2c(c1)OCCO2	inactive: 15.8%
O=C(Nc1cnc2sc3c(n2c1=O)CCCC3)c1ccc(F)cc1	active: 23.9%
Cn1cccc1/C=C1\SC(=S)N(NC(=O)c2ccccc2)C1=O	inconclusive: 24.9%
Cc1cc(=O)oc2cc(NS(=O)(=O)c3ccc(F)cc3)ccc12	inconclusive: 27.8%
O=C(NCc1cccs1)C(Cc1ccccc1)NS(=O)(=O)c1cccs1 (stereo unspecified)	inactive: 13.3%

Compound	inhibition
Cc1cc(Cl)ccc1OCC(=O)OC(C)C(=O)NC(N)=O (stereo unspecified)	inactive: -2.23%
CCOc1ccc(N(CC(=O)Nc2ccccc2C(=O)NCc2ccco2)S(C)(=O)=O)cc1	active: 23.4%
Nc1cccc(S(=O)(=O)c2ccc(N)c(N)c2)c1	inconclusive: 26.3%
O=C(CSCc1ccccc1)N=Nc1c(O)[nH]c2ccccc12	inconclusive: 27%
Cn1cccc1/C=C1\SC(=S)N(CC(=O)O)C1=O	inconclusive: 23.9%
CS/C(=N\S(=O)(=O)c1cccs1)NC(=O)CSc1nc2ccccc2s1	inconclusive: 27%
CCOC(=O)c1c(NC(=S)Nc2ccccc2)sc2c1CCN(CCc1ccccc1)C2	inconclusive: 27.2%
O=C(NC(CC(=O)N1CCN(c2ccccc2)CC1)c1ccccc1)c1ccccc1Cl (stereo unspecified)	inconclusive: 24.8%
O=[N+]([O-])c1ccc(S(=O)(=O)Nc2nc3ccccc3nc2Nc2ccccc2)cc1	inactive: 2.42%
O=C1CCC(=O)N1c1nc2n(n1)C(c1ccccc1)C=C(c1ccc(Br)cc1)N2 (stereo unspecified)	inconclusive: 46.9%
COc1ccc(NC(=O)CSc2nnc(-c3ccccc3C)n2C)cc1	active: 27.4%
O=C(O)c1cccc(Cn2c(Cl)c(/C=N/NC(=O)c3cc4ccccc4cc3O)sc2=O)c1	inconclusive: 24.4%
O=C(CN1CCOCC1)N1CCCc2c1c(=O)oc1ccc(OCc3ccccc3)cc21	inconclusive: 23.3%
CC(=O)N(C(C)=O)c1nc(-c2ccccc2)cn1/N=C/c1ccccc1	inconclusive: 27.8%
Cc1cc2cc(C(c3nnnn3Cc3ccco3)N3CCCCC3)c(=O)[nH]c2cc1C (stereo unspecified)	active: 26.8%
CCNC(=S)N(CCc1ccc(S(N)(=O)=O)cc1)C1CC(=O)N(c2ccccc2)C1=O (stereo unspecified)	inactive: 2.82%
Oc1ccc(N=Cc2ccc(-c3cccs3)s2)cc1	inconclusive: 27.5%
COc1cc2c(cc1OC)CN(C(=O)CSc1nnc(C)s1)CC2	active: 25.4%
